PubChem BioAssay AID1259308 – NCATS – 2017

Test: 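Knock-downs that increase output of a recombinant reporter protein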 (primary screen)
Cell system: human HEK293 embryonic kidney cells stably expressing firefly luciferase (HEK-CMV-Luc2-Hygro)
Reagents: single siRNA against human genes, 0.8 pmol siRNA per well
Timing: 72 h
Measured: 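Reporter luminescence and viable-cell signal on separate replicate plates, given as percent of non-targeting control and median/MAD z-scores, plus per-cell luciferase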
Scale: total luciferase, z-score and total luciferase, % of control: higher = more reporter protein produced
Active means: 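Active when the median/MAD z-score for overall luciferase is greater than 3; a gene was taken forward for validation with new siRNAs if at least two of its three siRNAs passed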
Calls: active = raised luciferase; inactive = no rise
Here is one part, drawn at random, of about 59,000 reagents. About 1,510 of them (2.6%) were called active. 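Calls use total luciferase alone and ignore viability, so some active siRNAs may act by altering cell number.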 Unmarked entries are inactive. The numbers tell different reagents against one gene apart. Further read-outs or replicates are left out here. No sequences are given here.

Depletion of KITLG #1 resulted in: total luciferase, z-score 0.0727; total luciferase, % of control 83.3.
KITLG #2 gave total luciferase, z-score -0.141; total luciferase, % of control 79.1.
KITLG #3 showed total luciferase, z-score -0.204; total luciferase, % of control 77.8.
LINC00205 #1 gave total luciferase, z-score 0.648; total luciferase, % of control 94.8.
For LINC00205 #2, the entry reads total luciferase, z-score -0.897; total luciferase, % of control 64.1.
LINC00205 #3 gave total luciferase, z-score -0.345; total luciferase, % of control 75.
HPRT1 #1 showed total luciferase, z-score 0.575; total luciferase, % of control 93.3.
Knock-down of HPRT1 #2 resulted in: total luciferase, z-score 0.133; total luciferase, % of control 84.5.
Silencing of HPRT1 #3 came out at: total luciferase, z-score -0.323; total luciferase, % of control 75.5.
Depletion of OPCML #1 resulted in: total luciferase, z-score 3.27 (active); total luciferase, % of control 147.
With knock-down of OPCML #2, the record shows total luciferase, z-score -1.06; total luciferase, % of control 60.9.
Knock-down of OPCML #3 came out at: total luciferase, z-score 0.845; total luciferase, % of control 98.7.
For BORCS8-MEF2B #1 the deposit lists total luciferase, z-score -0.838; total luciferase, % of control 65.2.
Depletion of BORCS8-MEF2B #2 came out at: total luciferase, z-score -0.0636; total luciferase, % of control 80.6.
After knock-down of BORCS8-MEF2B #3, the record shows total luciferase, z-score -2.74; total luciferase, % of control 27.4.
For RUSC1 #1, the entry reads total luciferase, z-score 2.41; total luciferase, % of control 130.
Against RUSC1 #2 the deposit lists total luciferase, z-score 0.692; total luciferase, % of control 95.7.
For RUSC1 #3, the entry reads total luciferase, z-score 0.613; total luciferase, % of control 94.1.

Taken from above.
OPCML #2, total luciferase, z-score = -1.06
OPCML #1, total luciferase, % of control = 147 (active)
LINC00205 #1, total luciferase, % of control: 94.8
Entry for LINC00205 #2 under “total luciferase, z-score”: -0.897

Next reagents follow.
Against FREM2 #1, the values are total luciferase, z-score -0.66; total luciferase, % of control 68.8.
FREM2 #2 gave total luciferase, z-score -0.506; total luciferase, % of control 71.8.
FREM2 #3 scored total luciferase, z-score -0.447; total luciferase, % of control 73.
Silencing of VAMP8 #1 resulted in: total luciferase, z-score 0.225; total luciferase, % of control 86.4.
With knock-down of VAMP8 #2, the screen gave total luciferase, z-score 0.0996; total luciferase, % of control 83.9.
For VAMP8 #3, the entry reads total luciferase, z-score 0.0325; total luciferase, % of control 82.5.
With knock-down of TBXAS1 #1 the results were total luciferase, z-score -1.03; total luciferase, % of control 61.5.
TBXAS1 #2 gave total luciferase, z-score -1.34; total luciferase, % of control 55.3.
After knock-down of TBXAS1 #3, the record shows total luciferase, z-score 1.35; total luciferase, % of control 109.
Against HSPA14 #1 the deposit lists total luciferase, z-score 0.516; total luciferase, % of control 92.1.
Depletion of HSPA14 #2 gave: total luciferase, z-score -0.133; total luciferase, % of control 79.2.
HSPA14 #3 showed total luciferase, z-score -0.351; total luciferase, % of control 74.9.
With knock-down of DLG3 #1 the results were total luciferase, z-score -0.287; total luciferase, % of control 76.2.
DLG3 #2 showed total luciferase, z-score -0.64; total luciferase, % of control 69.2.
After knock-down of DLG3 #3 the results were total luciferase, z-score -0.236; total luciferase, % of control 77.2.
